Data published in patent US20160015786A1, “MOBILIZING AGENTS AND USES THEREFOR” (MATER MEDICAL RESEARCH INSTITUTE LIMITED, priority 2013, published 2016).
Some results were stated once for a whole list of compounds, not compound by compound. Some ranges recur; such a range may be that of the whole group of compounds.

The chains behind the UniProt entries cited, without tags or fusion partners. Where a name states a change or a piece, a line headed by the entry shows the natural chain unless it says otherwise.
UniProt Q9GZT9: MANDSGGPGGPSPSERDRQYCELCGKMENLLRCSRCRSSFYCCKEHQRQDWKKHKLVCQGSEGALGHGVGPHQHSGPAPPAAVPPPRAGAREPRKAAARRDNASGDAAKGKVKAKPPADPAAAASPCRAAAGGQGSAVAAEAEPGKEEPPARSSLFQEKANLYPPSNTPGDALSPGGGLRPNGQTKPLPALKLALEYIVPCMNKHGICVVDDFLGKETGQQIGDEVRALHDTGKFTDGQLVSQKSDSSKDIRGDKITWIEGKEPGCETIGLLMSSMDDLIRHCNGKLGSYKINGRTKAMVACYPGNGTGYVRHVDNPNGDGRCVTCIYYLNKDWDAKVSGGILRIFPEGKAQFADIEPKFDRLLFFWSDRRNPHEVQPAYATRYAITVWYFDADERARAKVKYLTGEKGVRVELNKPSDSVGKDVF

Key:
[1] = target: PHD2 enzyme (Homo sapiens, UniProt Q9GZT9); assay: Inhibition of the PHD2 enzyme (HIF prolyl hydroxylase IC50); format: biochemical; conditions: range stated for the listed compounds together
[2] = test system: hematopoietic stem and progenitor cells; assay: Phenotypic HSCs, HSPCs and myeloid progenitors in blood, spleen and bone marrow by flow cytometry; format: in vivo, C57BL/6 mice; conditions: Example 6: 20 mg/kg + G-CSF vs vehicle + G-CSF; FIGS. 7A-B
Experimental: Additional HIF-α potentiating agents in the form of PHD inhibitors were tested for their ability to enhance mobilization induced by G-CSF. Compound A, Compound B or Compound C, were tested in male, 7 weeks-old C57BL/6 mice. Mice were injected twice daily sub-cutaneously with rhuG-CSF at a dose of 125 μg/kg per injection for four days. Mice were gavaged with 20 mg/kg Compound A, Compound B, Compound C or vehicle control once daily for three days beginning on day 1 of the experiment.
At the end of treatment, blood was harvested by cardiac puncture, mice were sacrificed by cervical dislocation and spleens harvested. Femurs were removed, cleaned and the bone marrow was flushed with 1 mL PBS+10% newborn calf serum (NCS).
The number of phenotypic hematopoietic stem and progenitor cells remaining in the bone marrow following treatment was measured by flow cytometry using antibodies specific for lineage markers (CD3, CD5, CD45R/B220, F4/80, Gr1, CD41, Ter119), Sca-1, Kit, CD48 and CD150. Similarly, the number of phenotypic hematopoietic stem cells mobilized into the blood and spleen were measured. Colony assays were also performed on blood and spleen to determine the number of colony forming cells per mL of blood and per spleen. All results are presented as mean f standard deviation with n=6 per groups. Levels of significance for differences were calculated using the Student's t-test.
All procedures were approved by the animal experimentation ethics committee of the University of Queensland. All experiments were performed on nine to twelve-week old C57BL/6 male mice or genetically modified mice back-crossed at least 10 times into C57BL/6. Recombinant human G-CSF (Amgen, Thousand Oaks, Calif.) was injected twice daily subcutaneously at 125 μg/kg per injection for up to 4 consecutive days. Plerixafor (AMD3100 octohydrochloride, Tocris Bioscience, Bristol, UK) was injected intraperitoneally as a single 16 mg/kg dose corresponding to 10 mg/kg of AMD3100 base. Tissues were harvested 1 h after Plerixafor administration. […] Compounds H and J were administered at 60 mg/kg and Compound K was administered at 100 mg/kg. Control mice were injected with an equivalent volume of saline. At specified time-points, mice were anesthetized with isoflurane before cardiac puncture to harvest blood. Mice were then euthanized by cervical dislocation and BM and bones harvested.
Following flushing with PBS plus 2% NCS, enriched central BM cells were pelleted at 370×g for 5 minutes at 4° C. and resuspended in CD16/CD32 hybridoma 2.4G2 supernatant to block IgGFc receptors. HSCs were stained with the biotinylated lineage antibody cocktail (CD3, CD5, B220, CD11b, Gr-1, Ter119) and biotinylated CD41 together with streptavidin (SAV)-Pacific Blue, anti-Sca-1-PECY7, anti-KIT-APC, CD48-FITC and CD150-PE as previously described (17). Data were acquired on a CyAn (Dako Cytomation) flow cytometer and analyzed following compensation with single color controls using FlowJo software (Tree Star, Ashland, Oreg.).

| Compound | IC50 [1] [nM] | increase in number of HSPCs (LSK48−150− and LSK) mobilized to the blood [2] [fold] | increase in number of phenotypic HSCs (LSK48−150+) mobilized to the blood [2] [fold] |
| --- | --- | --- | --- |
| N#Cc1nc(C(=O)NCC(=O)O)c(O)c2c(Oc3ccc(Cl)cc3)cccc12 [Compound A, {[5-(4-Chloro-phenoxy)-1-cyano-4-hydroxy-isoquinoline-3-carbonyl]-amino}-acetic acid] | 50 to 1500 | ≥ 2 | ≥ 3 |
| N#Cc1nc(C(=O)NCC(=O)O)c(O)c2c(Oc3ccccc3)cccc12 [Compound B, [(1-Cyano-4-hydroxy-5-phenoxy-isoquinoline-3-carbonyl)-amino]-acetic acid] | 50 to 1500 | ≥ 2 | ≥ 3 |
| N#Cc1nc(C(=O)NCC(=O)O)c(O)c2ccn(Cc3ccccc3F)c12 [Compound C, {[7-Cyano-1-(2-fluoro-benzyl)-4-hydroxy-1H-pyrrolo[2,3-c]pyridine-5-carbonyl]-amino}-acetic acid] | 50 to 1500 | ≥ 2 | ≥ 3 |
| CC(C)c1nn(Cc2ccc(-c3ccc(F)cc3)cc2F)c(=O)c(C(=O)NCC(=O)O)c1O [Compound E, {[2-(3,4′-Difluoro-biphenyl-4-ylmethyl)-5-hydroxy-6-isopropyl-3-oxo-2,3-dihydro-pyridazine-4-carbonyl]-amino}-acetic acid] | 50 to 1500 | – | – |
| COc1ccc(Oc2ccc3c(O)c(C(=O)NCC(=O)O)ncc3c2)cc1 [Compound J, {[4-Hydroxy-7-(4-methoxy-phenoxy)-isoquinoline-3-carbonyl]-amino}-acetic acid] | 50 to 1500 | – | – |
| O=C(O)CNC(=O)c1ncc(-c2cccc(F)c2)cc1O [Compound K, {[5-(3-Fluoro-phenyl)-3-hydroxy-pyridine-2-carbonyl]-amino}-acetic acid] | 50 to 1500 | – | – |
| O=C(O)CNC(=O)c1ncc2cc(Sc3ccccc3)ccc2c1O [Compound X, [(4-Hydroxy-7-phenylsulfanyl-isoquinoline-3-carbonyl)-amino]-acetic acid] | 50 to 1500 | – | – |
